According to PubChem BioAssay AID504842 (National Center for Advancing Translational Sciences (NCATS), 2011):
Among all 330,000 compounds or so, about 100 (0.03%) were called active. This list was built around the results that the source calls inconclusive (neither active nor inactive); the mix of calls is not that of the screen. The call rests on the fitted dose curve; in most records, active means well fitted inhibition curve with a large enough effect; inconclusive means small, poorly fitted or top-dose-only effect; inactive means flat fitted curve, though single readings scatter. Where the call is inconclusive, the potency comes from a doubtful curve fit.

What follows are compounds tested on Chaperonin Mm-Cpn (Methanococcus maripaludis) (assay: Inhibitors of TCP-1 ring complex (TRiC) of Methanococcus maripaludis (MmCpn): qHTS). Conditions: purified Mm-Cpn ATPase, ADP Transcreener TR-FRET.
Outline: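 Quantitative HTS used 25 nM Mm-CPN and 10 uM ATP in magnesium/KCl Tris buffer, pH 7.4, with 1 mM DTT. Hydrolysis ran 30 min at 37°C; ADP was read by HTRF.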
Further: nearly all actives have a fitted effect of over 80% in size.
Potency means the concentration at half of the fitted maximal effect.
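Wherever potency is given: enzyme at 25 nM with ATP substrate at 10 µM during the reaction.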

Potency, active:
COc1cc2sc(-c3ccccc3OC)c(-c3ccc(OCCN4CCOCC4)cc3)c2cc1OC 44.7 µM

Potency, inactive:
O=C(Nc1nc2ccccc2[nH]1)c1ccc(F)c(S(=O)(=O)N2CCOCC2)c1
COc1ccccc1CNS(=O)(=O)c1ccc(Cl)s1
O=C(O)/C=C/c1ccc(S(=O)(=O)Nc2ccccc2C(=O)Nc2ccc(F)cc2)cc1
CCOC(=O)C1CCN(Cc2ccc(F)c(Br)c2)CC1
Cc1ccc(/C=C/C(=O)c2ccccc(=O)c2O)cc1C
COc1ccccc1NC(=O)CN(C)S(=O)(=O)c1cccc2cccnc12

Potency, inconclusive:
CC(C)NC(=O)CC(=O)NN=C1CCCCC1 126 µM [inhibitor, partial curve, poor fit]
COC(=O)NCC(c1cccnc1)N1CCOCC1 (stereo unspecified) 22.4 µM [inhibitor, single point]
O=C(Nc1cccc([N+](=O)[O-])c1)Nc1cccc([N+](=O)[O-])c1 10 µM [inhibitor, single point]
Cc1cccn2c(=O)nc(SCC(=O)N3N=C(c4cccs4)CC3c3ccc(F)cc3)nc12 (stereo unspecified) 100 µM [inhibitor, single point]
COc1cc2sc(-c3ccccc3OC)c(-c3ccc(O)cc3)c2cc1OC 56.2 µM [inhibitor, partial curve, poor fit]
O=C1NC(=O)C(CC(=O)N(Cc2cccs2)C2(C(=O)NC3CCCCC3)CCCCC2)N1 (stereo unspecified) 56.2 µM [inhibitor, single point]
COc1ccc(NS(=O)(=O)c2ccc(N3CCCC3)c(NC(=S)Nc3ccc(SC(F)F)cc3)c2)cc1 25.1 µM [inhibitor, single point]
CCN(CCO)c1ncnc2c1sc1nc(C(C)C)c3c(c12)CC(C)(C)OC3 112 µM [inhibitor, partial curve, poor fit]
Cn1cc(Cl)c(C(=O)NC(=S)Nc2sc3c(c2C#N)CCCCC3)n1 100 µM [inhibitor, partial curve, poor fit]
Cc1nc(N2CCOCC2)c2c3c(sc2n1)CCC3 44.7 µM [inhibitor, single point]
CCOC(=O)c1sc2cc([N+](=O)[O-])cc(SCCO)c2c1N 79.4 µM [inhibitor, single point]
COc1ccc(N2CC(C(=O)NCCCN3CCOCC3)CC2=O)cc1 (stereo unspecified) 100 µM [inhibitor, single point]
Cn1nnnc1NCc1ccc(Cl)cc1 11.2 µM [inhibitor, single point]
O=C1NC2(CCC3(CC2)OCCO3)NN1c1ccccc1 100 µM [inhibitor, single point]
Clc1ccc(-c2nnc3sc(-c4ccc(Br)o4)nn23)c(Cl)c1 39.8 µM [inhibitor, partial curve, poor fit]
CCOc1ccc(NC(=O)c2cccc(-n3cccc3)c2)cc1S(=O)(=O)N1CCOCC1 100 µM [inhibitor, single point]
Cc1cccc(NC(=S)NNC(=O)COc2ccc(Cl)cc2Cl)c1 89.1 µM [inhibitor, single point]
Cc1cc(NC(=O)CSc2nc3c(c(-c4cccnc4)c2C#N)CCC3)no1 112 µM [inhibitor, single point]
O=C(OCc1ccc2c(c1)OCO2)c1ccc(S(=O)(=O)N2CCCC2)cc1 89.1 µM [inhibitor, single point]
NS(=O)(=O)c1ccc(NC(=O)/C=C/c2cn(-c3ccccc3)nc2-c2cccc(Cl)c2)cc1 200 µM [inhibitor, partial curve, poor fit]
CSc1ccc(/C=C(/NC(=O)c2ccco2)C(=O)NCc2ccco2)cc1 56.2 µM [inhibitor, single point]
Cc1ccc(NC(=O)COC(=O)C2C3CC4OC(=O)C2C4C3)cc1 (stereo unspecified) 100 µM [inhibitor, single point]
CC1=NN(c2ccccc2)C(=O)C1C=Nc1ccc(N(C)C)cc1 (stereo unspecified) 35.5 µM [inhibitor, partial curve, poor fit]
O=C(Nc1nc(-c2ccc(S(=O)(=O)N3CCCC3)cc2)cs1)C1COc2ccccc2O1 (stereo unspecified) 79.4 µM [inhibitor, single point]
COC(=O)c1cc2c(-c3ccccc3)cc3ccccn3c-2c1C(=O)OC 126 µM [inhibitor, partial curve]
CN(Cc1c(F)cccc1Cl)C(=O)c1ccc(NC(=O)CC2SC(N3CCCC3)=NC2=O)cc1 (stereo unspecified) 63.1 µM [inhibitor, single point]
c1ccc(CCSc2ncnc3nc[nH]c23)cc1 10 µM [inhibitor, single point]
O=C(c1cccs1)N(CCO)Cc1cc2cc3c(cc2[nH]c1=O)OCCO3 5.62 µM [inhibitor, single point]
CCOC(=O)c1sc(SC)c2c1CCCC2=O 70.8 µM [inhibitor, partial curve, poor fit]
Cc1cccc(OCC(=O)Nc2ccc(S(=O)(=O)N3CCCC3)cc2)c1 25.1 µM [inhibitor, single point]
COCCn1nnnc1C(c1ccccc1)N1CCN(C)CC1 (stereo unspecified) 100 µM [inhibitor, single point]
Cc1cc(S(=O)(=O)Nc2c(C(=O)O)[nH]c3ccccc23)ccc1F 25.1 µM [inhibitor, single point]
CCCCC(=O)NC(Nc1cc(C)ccn1)(C(=O)OCC)C(F)(F)F (stereo unspecified) 100 µM [inhibitor, single point]
COc1ccccc1NC(=O)C1=C(C)NC(SCC(=O)c2ccccc2)=C(C#N)C1c1ccco1 (stereo unspecified) 100 µM [inhibitor, single point]

A draw from above in order of heavy-atom count, low to high:
Potency, inconclusive:
CCOC(=O)c1sc(SC)c2c1CCCC2=O 70.8 µM [inhibitor, partial curve, poor fit]
O=C(Nc1cccc([N+](=O)[O-])c1)Nc1cccc([N+](=O)[O-])c1 10 µM [inhibitor, single point]
COCCn1nnnc1C(c1ccccc1)N1CCN(C)CC1 (stereo unspecified) 100 µM [inhibitor, single point]
Cc1ccc(NC(=O)COC(=O)C2C3CC4OC(=O)C2C4C3)cc1 (stereo unspecified) 100 µM [inhibitor, single point]
Cn1cc(Cl)c(C(=O)NC(=S)Nc2sc3c(c2C#N)CCCCC3)n1 100 µM [inhibitor, partial curve, poor fit]
CCN(CCO)c1ncnc2c1sc1nc(C(C)C)c3c(c12)CC(C)(C)OC3 112 µM [inhibitor, partial curve, poor fit]
O=C(Nc1nc(-c2ccc(S(=O)(=O)N3CCCC3)cc2)cs1)C1COc2ccccc2O1 (stereo unspecified) 79.4 µM [inhibitor, single point]
CN(Cc1c(F)cccc1Cl)C(=O)c1ccc(NC(=O)CC2SC(N3CCCC3)=NC2=O)cc1 (stereo unspecified) 63.1 µM [inhibitor, single point]
COc1ccccc1NC(=O)C1=C(C)NC(SCC(=O)c2ccccc2)=C(C#N)C1c1ccco1 (stereo unspecified) 100 µM [inhibitor, single point]
